These are yes or no findings as the source states them, for the method shown. Binding can be weak; no strength is given.
What was measured:
[1] = target: Spa2-1-145 (S. cerevisiae) (UniProt P23201); experiment: two-hybrid; vectors pGADT7 and pGBKT7; growth at 30°C on SC medium lacking leucine, tryptophan and histidine (selective), 3-4 days
[2] = target: Spa2 SHD-V domain fragment (S. cerevisiae); experiment: as above

The chains behind the UniProt entries cited, without tags or fusion partners. Residues count along the entry.
UniProt P23201, residues 1-145: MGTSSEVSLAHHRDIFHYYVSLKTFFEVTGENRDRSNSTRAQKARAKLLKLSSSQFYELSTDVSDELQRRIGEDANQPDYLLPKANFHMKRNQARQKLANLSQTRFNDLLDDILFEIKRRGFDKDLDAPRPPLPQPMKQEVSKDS

Molecule | binding [1] | binding [2]
F-BAR domain of Hof1 (two-hybrid fragment) (from UniProt Q05080) (domain or fragment) | binds | 
Hof1 (two-hybrid construct of Fig 5E) (protein, UniProt Q05080 1-669) MSYSYEACFWDPNDNGVNILLGHISQGIRSCDSMILFFKQRSELEKDYARRLGAITGKLDKDIGTNMDYGKLNETFNVVLSVEKARAQSHSKQSEILFRQIYTDTKAFAANLQARYTTLSGKIERLRMDKFNKKKGCEVLQKKLQDAQIRFRDLQLNENNMIGAKRVEHNKRELLKWESNSQEYKVQLDVLKQEYKASQKFWIHEWAQLSCELQEMENARISFLQSKLQQFATSSMETYILEQTKMDMLTNHLNSFTAADEISTFSKENGTGRLKHKTSKGDMNSSANWAQMSSISTTSKKTESYMDNIRKLSSQLKETENKRKLASIDKYEKPLPSPEVTMATQFRNSTPVIRNETKVVANPTLSLRSSPVQLQSNVDDSVLRQKPDKPRPIVGEEQLKPDEDSKNPDEKGLMVHKRNQSLSSPSESSSSNPTDFSHIKKRQSMESMTTSVSSMANSIDDSQRFAKSWNSSNRKRKSMSHLQVPSSASSRSDDGGRTPNSAHNLNEDDYNTRRDTSTSTILFKPPVAVRGTSRGHTHRQSMIMQDSSNPIEDALYEMERIQSSSKPGTKTGNIMDERGVVRDRGITVTLPIVTSEGFPVIEYAKAMYPLIGNEAPGLANFHKGDYLLITEIVNKDWYKGEVYDNDRIDRNHRIGLIPYNFIQLLHQGL |  | binds
Chs2-215-629 (two-hybrid) (domain or fragment, UniProt P14180 215-629) ANSESKRRMVSDLPPPSKKKALLKLDNPIPKGLLDTLPRRNSPEFTEMRYTACTVEPDDFLREGYTLRFAEMNRECQIAICITMYNEDKYSLARTIHSIMKNVAHLCKREKSHVWGPNGWKKVSVILISDGRAKVNQGSLDYLAALGVYQEDMAKASVNGDPVKAHIFELTTQVSINADLDYVSKDIVPVQLVFCLKEENKKKINSHRWLFNAFCPVLQPTVVTLVDVGTRLNNTAIYRLWKVFDMDSNVAGAAGQIKTMKGKWGLKLFNPLVASQNFEYKISNILDKPLESVFGYISVLPGALSAYRYRALKNHEDGTGPLRSYFLGETQEGRDHDVFTANMYLAEDRILCWELVAKRDAKWVLKYVKEATGETDVPEDVSEFISQRRRWLNGAMFAAIYAQLHFYQIWKTKHS |  | binds
